No constants are given. Whether binding was seen depends on the method and setting. Binding seen in cells or lysates may run through a third protein. Some binding calls cover weakened binding; strength is not graded here. For part of these data: Tags and fused reporters may be left off the sequences shown.
Assays:
FLAG-tagged HDAC2 = FLAG-tagged HDAC2 (UniProt P70288); experiment: co-IP; HA-Foxp3 or its deletion mutants and FLAG-HDAC1, 2 or 3 co-transfected in HEK293T; lysis in 0.4 M NaCl, 1% Triton X-100, diluted with hypotonic buffer; immunoprecipitation with anti-FLAG M2 agarose, 2 h at 4°C, washes with 0.5 M NaCl; blot with anti-HA
FLAG-tagged HDAC1 = FLAG-tagged HDAC1 (UniProt O09106); experiment: as above
FLAG-tagged HDAC3 = target: T1, FLAG-tagged HDAC3 (UniProt O88895); experiment: as above
T1 sequence: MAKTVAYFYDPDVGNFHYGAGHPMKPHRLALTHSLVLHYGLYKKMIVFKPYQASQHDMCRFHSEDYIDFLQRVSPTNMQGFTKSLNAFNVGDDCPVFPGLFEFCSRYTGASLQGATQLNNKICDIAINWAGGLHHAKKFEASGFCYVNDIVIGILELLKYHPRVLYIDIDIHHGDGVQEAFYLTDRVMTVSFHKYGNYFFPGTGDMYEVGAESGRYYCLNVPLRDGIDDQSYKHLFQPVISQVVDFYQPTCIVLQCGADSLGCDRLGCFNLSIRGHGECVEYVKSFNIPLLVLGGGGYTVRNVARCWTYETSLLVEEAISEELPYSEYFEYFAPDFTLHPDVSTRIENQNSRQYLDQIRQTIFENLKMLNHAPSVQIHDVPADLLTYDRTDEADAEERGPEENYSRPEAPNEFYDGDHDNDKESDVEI

Protein sequences, listed by entry. Tags and fused reporters are not part of them.
UniProt P70288: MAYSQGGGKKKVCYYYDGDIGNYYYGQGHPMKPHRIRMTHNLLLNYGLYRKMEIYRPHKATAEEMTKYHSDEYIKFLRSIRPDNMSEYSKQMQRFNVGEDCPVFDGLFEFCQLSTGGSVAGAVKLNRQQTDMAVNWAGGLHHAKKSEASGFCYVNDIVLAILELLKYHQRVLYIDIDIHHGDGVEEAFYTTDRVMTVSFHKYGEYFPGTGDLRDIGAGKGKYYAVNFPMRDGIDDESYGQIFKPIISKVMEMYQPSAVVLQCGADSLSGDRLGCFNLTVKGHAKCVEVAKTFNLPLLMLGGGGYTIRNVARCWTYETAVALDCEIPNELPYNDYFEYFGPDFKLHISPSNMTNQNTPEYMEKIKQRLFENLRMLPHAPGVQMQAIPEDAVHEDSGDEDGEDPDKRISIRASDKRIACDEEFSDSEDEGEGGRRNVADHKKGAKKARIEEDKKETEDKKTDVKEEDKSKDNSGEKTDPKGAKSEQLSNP
UniProt O09106: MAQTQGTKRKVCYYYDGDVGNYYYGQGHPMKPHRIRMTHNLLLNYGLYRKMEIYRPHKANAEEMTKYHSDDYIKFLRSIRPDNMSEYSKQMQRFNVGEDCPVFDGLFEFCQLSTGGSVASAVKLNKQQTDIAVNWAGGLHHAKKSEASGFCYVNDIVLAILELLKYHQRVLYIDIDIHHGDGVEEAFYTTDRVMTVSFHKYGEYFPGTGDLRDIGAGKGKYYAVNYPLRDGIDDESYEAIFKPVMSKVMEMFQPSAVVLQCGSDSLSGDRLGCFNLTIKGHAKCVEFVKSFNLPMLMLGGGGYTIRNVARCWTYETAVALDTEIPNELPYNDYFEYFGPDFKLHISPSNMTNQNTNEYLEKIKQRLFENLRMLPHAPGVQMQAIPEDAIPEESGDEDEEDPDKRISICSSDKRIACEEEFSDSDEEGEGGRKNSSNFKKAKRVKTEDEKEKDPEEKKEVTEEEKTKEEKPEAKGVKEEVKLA

[1] = target: HA-HDAC1 (in primary T cells) (UniProt O09106); experiment: co-IP; primary CD4+ T cells co-transduced with retrovirus carrying FLAG-Foxp3 and HA-HDAC1 or 2 (IP with anti-HA affinity gel), or HA-Foxp3 and FLAG-HDAC3 (IP with anti-FLAG M2 agarose); blots with anti-HA or anti-FLAG
[2] = target: HA-HDAC2 (in primary T cells) (UniProt P70288); experiment: as above
[3] = target: T2, FLAG-HDAC3 (in primary T cells) (UniProt O88895); experiment: as above
T2 sequence: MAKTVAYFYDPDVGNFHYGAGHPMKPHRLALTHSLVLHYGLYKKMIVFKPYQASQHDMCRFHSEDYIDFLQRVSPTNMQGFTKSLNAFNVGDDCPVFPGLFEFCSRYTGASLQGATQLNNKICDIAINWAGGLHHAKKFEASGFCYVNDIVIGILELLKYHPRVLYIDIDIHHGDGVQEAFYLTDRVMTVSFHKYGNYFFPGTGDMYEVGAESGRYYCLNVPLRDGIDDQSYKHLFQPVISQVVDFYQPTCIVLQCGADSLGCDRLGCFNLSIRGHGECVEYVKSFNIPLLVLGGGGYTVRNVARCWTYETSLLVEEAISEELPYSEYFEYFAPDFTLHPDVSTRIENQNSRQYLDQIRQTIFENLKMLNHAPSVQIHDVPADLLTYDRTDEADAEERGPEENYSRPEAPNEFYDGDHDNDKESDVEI

GST-tagged HDAC2 = GST-tagged HDAC2 (UniProt P70288); experiment: pull-down; 5 μl in vitro translated Foxp3 incubated with 10 μg affinity purified GST-HDAC in BC100 buffer (20 mM Tris pH 7.9, 100 mM NaCl, 10% glycerol, 0.2 mM EDTA, 0.1% Triton X-100) overnight at 4°C; pulled down with glutathione sepharose 4B; blot with anti-Foxp3 and anti-GST; only the target purified
GST-tagged HDAC3 = target: T3, GST-tagged HDAC3 (UniProt O88895); experiment: as above
T3 sequence: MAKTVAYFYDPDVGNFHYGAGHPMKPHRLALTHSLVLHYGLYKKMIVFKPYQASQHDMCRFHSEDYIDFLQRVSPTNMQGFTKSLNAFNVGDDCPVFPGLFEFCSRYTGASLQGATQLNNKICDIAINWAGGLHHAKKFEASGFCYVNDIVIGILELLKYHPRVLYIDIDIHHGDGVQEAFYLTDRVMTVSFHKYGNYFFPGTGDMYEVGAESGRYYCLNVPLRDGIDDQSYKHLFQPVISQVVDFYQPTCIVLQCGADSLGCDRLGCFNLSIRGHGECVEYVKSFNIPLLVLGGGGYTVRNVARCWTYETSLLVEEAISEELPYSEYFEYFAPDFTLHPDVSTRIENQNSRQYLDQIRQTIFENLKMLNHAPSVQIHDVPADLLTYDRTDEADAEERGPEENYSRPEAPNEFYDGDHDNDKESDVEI

GST-tagged HDAC1 = GST-tagged HDAC1 (UniProt O09106); experiment: as above

B1: HA-tagged Foxp3 (wild type) (protein, UniProt Q99JB6 1-429)
chain: MPNPRPAKPMAPSLALGPSPGVLPSWKTAPKGSELLGTRGSGGPFQGRDLRSGAHTSSSLNPLPPSQLQLPTVPLVMVAPSGARLGPSPHLQALLQDRPHFMHQLSTVDAHAQTPVLQVRPLDNPAMISLPPPSAATGVFSLKARPGLPPGINVASLEWVSREPALLCTFPRSGTPRKDSNLLAAPQGSYPLLANGVCKWPGCEKVFEEPEEFLKHCQADHLLDEKGKAQCLLQREVVQSLEQQLELEKEKLGAMQAHLAGKMALAKAPSVASMDKSSCCIVATSTQGSVLPAWSAPREAPDGGLFAVRRHLWGSHGNSSFPEFFHNMDYFKYHNMRPPFTYATLIRWAILEAPERQRTLNEIYHWFTRMFAYFRNHPATWKNAIRHNLSLHKCFVRVESEKGAVWTVDEFEFRKKRSQRPNKCSNPCP
For B1, the binding (FLAG-tagged HDAC2) was “binds”, the binding (FLAG-tagged HDAC1) was “binds” and the binding (FLAG-tagged HDAC3) was “binds”.

B2: FLAG-Foxp3 (in primary T cells) (protein, UniProt Q99JB6 1-429)
chain: MPNPRPAKPMAPSLALGPSPGVLPSWKTAPKGSELLGTRGSGGPFQGRDLRSGAHTSSSLNPLPPSQLQLPTVPLVMVAPSGARLGPSPHLQALLQDRPHFMHQLSTVDAHAQTPVLQVRPLDNPAMISLPPPSAATGVFSLKARPGLPPGINVASLEWVSREPALLCTFPRSGTPRKDSNLLAAPQGSYPLLANGVCKWPGCEKVFEEPEEFLKHCQADHLLDEKGKAQCLLQREVVQSLEQQLELEKEKLGAMQAHLAGKMALAKAPSVASMDKSSCCIVATSTQGSVLPAWSAPREAPDGGLFAVRRHLWGSHGNSSFPEFFHNMDYFKYHNMRPPFTYATLIRWAILEAPERQRTLNEIYHWFTRMFAYFRNHPATWKNAIRHNLSLHKCFVRVESEKGAVWTVDEFEFRKKRSQRPNKCSNPCP
In the case of B2, the binding [1] is reported as “binds” and the binding [2] is reported as “binds”.

B3: HA-Foxp3 (in primary T cells) (protein, UniProt Q99JB6 1-429)
chain: MPNPRPAKPMAPSLALGPSPGVLPSWKTAPKGSELLGTRGSGGPFQGRDLRSGAHTSSSLNPLPPSQLQLPTVPLVMVAPSGARLGPSPHLQALLQDRPHFMHQLSTVDAHAQTPVLQVRPLDNPAMISLPPPSAATGVFSLKARPGLPPGINVASLEWVSREPALLCTFPRSGTPRKDSNLLAAPQGSYPLLANGVCKWPGCEKVFEEPEEFLKHCQADHLLDEKGKAQCLLQREVVQSLEQQLELEKEKLGAMQAHLAGKMALAKAPSVASMDKSSCCIVATSTQGSVLPAWSAPREAPDGGLFAVRRHLWGSHGNSSFPEFFHNMDYFKYHNMRPPFTYATLIRWAILEAPERQRTLNEIYHWFTRMFAYFRNHPATWKNAIRHNLSLHKCFVRVESEKGAVWTVDEFEFRKKRSQRPNKCSNPCP
B3 was tested, and the binding [3] was “binds”.

B4: In vitro translated Foxp3 (protein, UniProt Q99JB6 1-429)
chain: MPNPRPAKPMAPSLALGPSPGVLPSWKTAPKGSELLGTRGSGGPFQGRDLRSGAHTSSSLNPLPPSQLQLPTVPLVMVAPSGARLGPSPHLQALLQDRPHFMHQLSTVDAHAQTPVLQVRPLDNPAMISLPPPSAATGVFSLKARPGLPPGINVASLEWVSREPALLCTFPRSGTPRKDSNLLAAPQGSYPLLANGVCKWPGCEKVFEEPEEFLKHCQADHLLDEKGKAQCLLQREVVQSLEQQLELEKEKLGAMQAHLAGKMALAKAPSVASMDKSSCCIVATSTQGSVLPAWSAPREAPDGGLFAVRRHLWGSHGNSSFPEFFHNMDYFKYHNMRPPFTYATLIRWAILEAPERQRTLNEIYHWFTRMFAYFRNHPATWKNAIRHNLSLHKCFVRVESEKGAVWTVDEFEFRKKRSQRPNKCSNPCP
With B4 the binding (GST-tagged HDAC2) was “binds”, the binding (GST-tagged HDAC3) was “binds” and the binding (GST-tagged HDAC1) was “binds”.
